{"source": "paper doi:10.1101/303180", "binders": {"B1": {"name": "DNA Polymerase α catalytic subunit (Polα/Swi7), wild type (protein, UniProt P28040 1-1405)", "chain": "MRKRNAGIKPSQRFAELRALRQAGKTRASTYESKENEELYDNVSEEEYRKIVRQRLDEDDFVVDDNGAGYVDNGYDEWDQSHYSDEDDENEKGSSGRKRKKSKNVLAEPNQQIGAFFKANAIQPASRIANRKNNEKEDEFMAEILGSIDQDIPERLSTKKGNRSHTTSNAKRRSQKAASSISTTNVVSSDPKKYIPETVPSTPQPASSLPIPSSPPAALETEENVDSQPMELDEPELPVGSDAPIIDVEESIAMKPLMSHDQVDDTASLSKATISQQPLSPMTPLSSELDVSAFSEINSKIKNVDVPASSYSSPISKVSPSDVTEEDGSLFFFWMDYTEMYGSLCLFGKVYDKATKQYVSCFLKVDGIMRSLYFLPRPSSSSVSEDSIAAQTKDVYDEVANLLSKRGVKEWKSRVSKYKYAFELEDVPRTADYLEVIYSYSYPALPTDLTGSSFSHVFGTNTALFEQFVLSRRVMGPCWLKIQQPNFDAVKNASWCRVEIGCSSPQNISVSFEKNEITSKTPPMTVMSLAFRTLINKEQNKQEVVMISARIFENVDIEKGLPANDMPSYSFSLIRPLKQIFPNGFEKLARQHKSSIFCERSEVSLLNNFLNKVRTYDPDVYFGHDFEMCYSVLLSRLKERKIHNWSSIGRLRRSEWPRSFNRSSQQFVEKQIIAGRLMCDLSNDFGRSMIKAQSWSLSEIVLKELDIKRQDINQEKALQSWTDTAHGLLDYLVHCEIDTFFIAAVAFKIQMLQLSKNLTNIAGNSWARTLTGTRAERNEYILLHEFKKNGYIVPDKQQSIRRHAEAFGAEDGLQEESLGKKKDKYKGGLVFEPQKGLYETCILVMDFNSLYPSIIQEYNICFTTVDRSPSNSDSDDQIPDTPSASANQGIFPRLIANLVERRRQIKGLLKDNSATPTQRLQWDIQQQALKLTANSMYGCLGYTKSRFYARPLAVLITYKGREALMNTKELADQMGLQVIYGDTDSVMLNTNVTDKNHALRIGNEFKEKVNERYSKLEIDIDNVYQRMLLHAKKKYAALQLDSQGKPNLDVKGLDMKRREFCTLAKEASKFCLDQILSGELTETVIENIHSYLMDFSEKMRNGKFPANKFIIFNRLGKNPEDYPNGKTMPFVQVALKKKARGENVRVGDVIPFIIAGSDADGHPADRAYSPQEIMNTNSTLVIDYNYYLSHQILPPIERVIAPIEGTNRARLAECLGLDARKYYSHETSESSAFQRYESTLTDDQCFINVSPLLLKCPSCNATSFSLRSVKSLKETLYANTVECDCGYEYSDFTIILQFSSQLRDFINLYYEGILVCDDSSCGNRTRQMSVYGKRCCNKSCRGSVHFEYNDEQLYNQIKFLLKAVQTTTGATRNGIIRCNAINKNISRIMNKNAREFVDMGLIFSS"}, "B2": {"name": "DNA Polymerase α catalytic subunit, swi7-1 mutant (G1116E) (protein, UniProt P28040 1-1405)", "chain": "B1 chain with G1116E"}, "B3": {"name": "Swi1 (TAP-tagged) (protein, UniProt Q9UUM2 1-971)", "chain": "MELDEVIQGIVSAIGGFDYSDDEKVYVLGDEALACLKDLKRYLQVVDEKYKVWQIRSLLSSLQLVTNDICPILSDWDKDITNYRNWRIALACVELLVPLTWPLETEHETFRENVDVLYNLRQAQSNYKNSILSYKKGSVLSAILAVLLKPLSTPAESRTLRDKGIIRIVLLLFRNILQIDELKTKNETIISFAKAHILDLIVTLVSNLDEFEHFDVYILEIVYNLIRGCKPSALFSDASLTNSQTELNSLLLKESTQNRYLKRNAHTRHNRFGTMLSVQTEDRRFTIASQNIKTDGLDELDSHKRFRKRGTRRKHFDDINKSFFINTEAGTALRNFAVEFLEAGFNPLFQSLLKDLEREDPRVLPIHKMQLLYVQSFFLEFMRFSSKPKKTEEIYSNDYSFGLAASVFDQRALIMHNRLMVESFEMKQWSTFQASMLSMTQLLFTLRSMTLCSSEIYQRIADNLLSNIFYQEEILLLVYSALKHFKTQSFGYLDAITELTIVLLKELEKFSSAKQYLYVKKRRRNQKSVDSNVLESDEDEESSLINANAAVEDRLFDFGRYESRYCDNGCIDSFVLFLQCYQDLDSKQIHRAISFFYRIFVKQKCHVYLYRLDFLRVLDKMFNDHVYFSTTNSARQDFEQFFVYYMRKLSDALKDVPALFIELPFPKLTDTFYYLEYGKSPLFSIHGSRKGPLYETVPGLSHLEKVAAVVACLINENKSDLLDELKVQLNCLISERKLITLADENKYINEGGNDGERMGKNLKGDTDSFNTALLKDGKFRLLLELCGFEESDNNIDVQALWKLPNSVIIDELVEHAMLLRRFTDDPPTFEGTKPEDLLVRKQRGNVRLPSSSEGETSDEEIEFEADDPITFANRREALNKITDRKRKKMKTNETIIDHTTRKKKENHLRSAKYIVDSDDDSETDIAFFQSEAALREKNAQKASALFKRIDDLEMEGKLQEIEQLSENSSSD"}, "B4": {"name": "Swi3 (myc-tagged) (protein, UniProt O14350 1-181)", "chain": "MSTAASDSGVEKLVEENKREEVKKNEEEKEFDLGLEENPDSVKKPRKRLAKFDEERLISENGIPKLRKMMRKVKLKGKGHEAKDLKQLLGMYHIWTHELYPRATFDDSISYLKTLGKHRSVKVRRRGWINEIAVENGSDSNASLFTGPSSNSLVNLTSGDPYVQDTADDAFVAQDNDTQLE"}}, "note": "Numbering of substitutions follows the chain as printed. Numbers in names are those of the source. Results are given in words; binding and its absence hold for the method and conditions named. Binding seen in cells or lysates may run through a third protein. Some results given as binding are weak or reduced against the parent protein; the word gives no strength. Tags and fused reporters may be left off the sequences shown.", "data": [{"biological_target": "T1, HA-tagged Cdc23 (Cdc23/SpMcm10) (S. pombe) (UniProt O42709)", "T1 sequence": "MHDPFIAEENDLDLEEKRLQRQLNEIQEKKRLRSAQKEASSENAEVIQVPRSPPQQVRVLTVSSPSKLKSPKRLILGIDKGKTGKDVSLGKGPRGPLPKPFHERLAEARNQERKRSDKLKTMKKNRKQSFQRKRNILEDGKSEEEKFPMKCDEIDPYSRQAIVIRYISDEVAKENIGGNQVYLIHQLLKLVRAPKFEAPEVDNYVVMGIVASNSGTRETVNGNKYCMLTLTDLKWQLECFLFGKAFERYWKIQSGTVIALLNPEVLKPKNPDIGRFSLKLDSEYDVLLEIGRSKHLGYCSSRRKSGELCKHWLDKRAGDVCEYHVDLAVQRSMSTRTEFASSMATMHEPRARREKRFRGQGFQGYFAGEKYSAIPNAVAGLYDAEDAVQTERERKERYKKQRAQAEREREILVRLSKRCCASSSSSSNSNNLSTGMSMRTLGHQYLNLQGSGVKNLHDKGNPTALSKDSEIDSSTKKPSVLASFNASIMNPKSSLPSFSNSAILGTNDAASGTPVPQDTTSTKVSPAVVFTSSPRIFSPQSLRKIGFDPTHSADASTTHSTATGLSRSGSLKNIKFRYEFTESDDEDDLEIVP", "test": "co-IP", "values": [{"binder": "B1", "binding": "binds"}, {"binder": "B2", "binding": "binds"}, {"binder": "B3", "binding": "binds"}, {"binder": "B4", "binding": "no binding"}]}]}
